The target of the experiment is human hemoglobin subunit beta (3×Flag-hHB) (human) (UniProt P68871). In words: co-IP; HEK293T cells cotransfected with p3×Flag-hHB and pMyc-RIG-I or pMyc-MDA5, 48 h; lysed in NP-40 buffer with 1 mM PMSF at 4°C; precleared with protein G-agarose; IP with anti-Flag M2 affinity gel or protein G-agarose with anti-Myc MAb overnight at 4°C; Western blot.

Amino acid sequences for entries named in this document (tags omitted).
UniProt P68871: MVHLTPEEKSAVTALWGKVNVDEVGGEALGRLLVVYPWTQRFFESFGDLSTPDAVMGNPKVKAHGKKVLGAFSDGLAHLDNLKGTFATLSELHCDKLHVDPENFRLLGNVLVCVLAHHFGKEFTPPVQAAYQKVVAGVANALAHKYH

These are yes or no findings as the source states them, for the method shown. In cells and extracts the contact can be indirect. Sequences can lack the tags named with a protein.

B1: melanoma differentiation-associated gene 5 (Myc-MDA5) (protein, UniProt Q9BYX4 1-1025)
chain: MSNGYSTDENFRYLISCFRARVKMYIQVEPVLDYLTFLPAEVKEQIQRTVATSGNMQAVELLLSTLEKGVWHLGWTREFVEALRRTGSPLAARYMNPELTDLPSPSFENAHDEYLQLLNLLQPTLVDKLLVRDVLDKCMEEELLTIEDRNRIAAAENNGNESGVRELLKRIVQKENWFSAFLNVLRQTGNNELVQELTGSDCSESNAEIENLSQVDGPQVEEQLLSTTVQPNLEKEVWGMENNSSESSFADSSVVSESDTSLAEGSVSCLDESLGHNSNMGSDSGTMGSDSDEENVAARASPEPELQLRPYQMEVAQPALEGKNIIICLPTGSGKTRVAVYIAKDHLDKKKKASEPGKVIVLVNKVLLVEQLFRKEFQPFLKKWYRVIGLSGDTQLKISFPEVVKSCDIIISTAQILENSLLNLENGEDAGVQLSDFSLIIIDECHHTNKEAVYNNIMRHYLMQKLKNNRLKKENKPVIPLPQILGLTASPGVGGATKQAKAEEHILKLCANLDAFTIKTVKENLDQLKNQIQEPCKKFAIADATREDPFKEKLLEIMTRIQTYCQMSPMSDFGTQPYEQWAIQMEKKAAKEGNRKERVCAEHLRKYNEALQINDTIRMIDAYTHLETFYNEEKDKKFAVIEDDSDEGGDDEYCDGDEDEDDLKKPLKLDETDRFLMTLFFENNKMLKRLAENPEYENEKLTKLRNTIMEQYTRTEESARGIIFTKTRQSAYALSQWITENEKFAEVGVKAHHLIGAGHSSEFKPMTQNEQKEVISKFRTGKINLLIATTVAEEGLDIKECNIVIRYGLVTNEIAMVQARGRARADESTYVLVAHSGSGVIEHETVNDFREKMMYKAIHCVQNMKPEEYAHKILELQMQSIMEKKMKTKRNIAKHYKNNPSLITFLCKNCSVLACSGEDIHVIEKMHHVNMTPEFKELYIVRENKALQKKCADYQINGEIICKCGQAWGTMMVHKGLDLPCLKIRNFVVVFKNNSTKKQYKKWVELPITFPNLDYSECCLFSDED
Consider B1, for which the binding result is “no binding”.

B2: retinoic acid-inducible gene I (Myc-RIG-I) (protein, UniProt O95786 1-925)
chain: MTTEQRRSLQAFQDYIRKTLDPTYILSYMAPWFREEEVQYIQAEKNNKGPMEAATLFLKFLLELQEEGWFRGFLDALDHAGYSGLYEAIESWDFKKIEKLEEYRLLLKRLQPEFKTRIIPTDIISDLSECLINQECEEILQICSTKGMMAGAEKLVECLLRSDKENWPKTLKLALEKERNKFSELWIVEKGIKDVETEDLEDKMETSDIQIFYQEDPECQNLSENSCPPSEVSDTNLYSPFKPRNYQLELALPAMKGKNTIICAPTGCGKTFVSLLICEHHLKKFPQGQKGKVVFFANQIPVYEQQKSVFSKYFERHGYRVTGISGATAENVPVEQIVENNDIIILTPQILVNNLKKGTIPSLSIFTLMIFDECHNTSKQHPYNMIMFNYLDQKLGGSSGPLPQVIGLTASVGVGDAKNTDEALDYICKLCASLDASVIATVKHNLEELEQVVYKPQKFFRKVESRISDKFKYIIAQLMRDTESLAKRICKDLENLSQIQNREFGTQKYEQWIVTVQKACMVFQMPDKDEESRICKALFLYTSHLRKYNDALIISEHARMKDALDYLKDFFSNVRAAGFDEIEQDLTQRFEEKLQELESVSRDPSNENPKLEDLCFILQEEYHLNPETITILFVKTRALVDALKNWIEGNPKLSFLKPGILTGRGKTNQNTGMTLPAQKCILDAFKASGDHNILIATSVADEGIDIAQCNLVILYEYVGNVIKMIQTRGRGRARGSKCFLLTSNAGVIEKEQINMYKEKMMNDSILRLQTWDEAVFREKILHIQTHEKFIRDSQEKPKPVPDKENKKLLCRKCKALACYTADVRVIEECHYTVLGDAFKECFVSRPHPKPKQFSSFEKRAKIFCARQNCSHDWGIHVKYKTFEIPVIKIESFVVEDIATGVQTLYSKWKDFHFEKIPFDPAEMSK
For the molecule B2, the binding result is recorded as “no binding”.

(Values after paper PMC6675906.)
